{"sequences": {"note": "By UniProt entry, the sequences of proteins in these tests, tags left out.", "UniProt Q0JBA9, entry or part of it": "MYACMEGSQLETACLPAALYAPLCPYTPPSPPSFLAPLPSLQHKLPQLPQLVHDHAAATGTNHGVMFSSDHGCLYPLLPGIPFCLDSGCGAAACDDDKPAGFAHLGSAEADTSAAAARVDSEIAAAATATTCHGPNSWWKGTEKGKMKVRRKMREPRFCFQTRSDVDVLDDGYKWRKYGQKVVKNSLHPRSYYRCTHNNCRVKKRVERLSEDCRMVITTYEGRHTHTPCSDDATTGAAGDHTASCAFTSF"}, "source": "paper PMC7819943", "about": "“Rice protein-binding microarrays: a tool to detect cis-acting elements near promoter regions in rice”", "note": "Some of the results follow."}
{"target": "OsWRKY34 (Oryza sativa, UniProt Q0JBA9 1-250)", "assay": "protein-binding microarray (RPBM); PBS, 2% BSA, 51.3 ng/ul salmon testes DNA, 50 uM zinc acetate, 200 nM TF, 25 C, 1 h; high values mean tight binding", "details": "protein: recombinant; tags: N-terminal polyhistidine and DsRed monomer fusion (pET32a); label: CyDye5-dUTP incorporated in the synthesized complementary strand; 3' TTTTT single-stranded linker to array surface; dsDNA, one strand shown", "outline": "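An Axon 4000B scanner gave the binding signal as per-feature fluorescence intensity in arbitrary units. This followed washing of a custom Agilent array that had been incubated for 1 h at 25 °C with 200 nM protein in PBS, 2% BSA, salmon testes DNA and 50 µM zinc acetate. The proteins were transcription factors fused at the N-terminus to polyhistidine and DsRed, expressed in E. coli BL21-CodonPlus and purified on Ni–NTA.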"}
{"sequence": "TCCGCGCCTCGCCTCGCCACCCGCATCGCCATCTCGCACCCGGAGTCACCTAGTGCAG", "binding signal": "8520 fluorescence intensity (a.u.)"}
{"sequence": "CCTCGCGTTTTGTGTCGTTCCGAGGCAACGTCGACGGTCGCGGAGTCACCTAGTGCAG", "binding signal": "8280 fluorescence intensity (a.u.)"}
{"sequence": "GGCGTATTTGCTCATTTGCTCTCTCTCTTCCTCTCCTCTCCGGAGTCACCTAGTGCAG", "binding signal": "8550 fluorescence intensity (a.u.)"}
{"sequence": "ATCCGCTTCTGGAAGTCTCGAGGCCTCTCTCTCTCTCTCTCGGAGTCACCTAGTGCAG", "binding signal": "8580 fluorescence intensity (a.u.)"}
{"sequence": "CACTGTCGTTATTTGCTTTAGCCCAACCTGTCACTGTTGTCGGAGTCACCTAGTGCAG", "binding signal": "11100 fluorescence intensity (a.u.)"}
{"sequence": "GGAGACGGCGTGGCGAGGAGGCGGGATGGGGAGGCGGCGCCGGAGTCACCTAGTGCAG", "binding signal": "10100 fluorescence intensity (a.u.)"}
{"sequence": "TTCCTTATTTCGTATAAACTATCTCCTAATTAATAAGAAGCGGAGTCACCTAGTGCAG", "binding signal": "8110 fluorescence intensity (a.u.)"}
{"sequence": "GGCGTTCACTTCACCGTGGGATCGAATCATCCAAAAACATCGGAGTCACCTAGTGCAG", "binding signal": "8150 fluorescence intensity (a.u.)"}
{"sequence": "AACTACTCTCTCCGTCCGATAGAACTCAACTGGACACACACGGAGTCACCTAGTGCAG", "binding signal": "8130 fluorescence intensity (a.u.)"}
{"sequence": "GCCACCACCGCCAATCGCCACCGCCTCACCACGCTGACCCCGGAGTCACCTAGTGCAG", "binding signal": "11000 fluorescence intensity (a.u.)"}
{"sequence": "TACACTCCATGTTTTGGCTGTTTTGACTTTCGCATGATCACGGAGTCACCTAGTGCAG", "binding signal": "9370 fluorescence intensity (a.u.)"}
{"sequence": "ATCCACAACCATCCATCTCCATTCGCCATTTCCGCCCACTCGGAGTCACCTAGTGCAG", "binding signal": "11600 fluorescence intensity (a.u.)"}
{"sequence": "ACGTTTTGCCCCTGGAGGGCATTTCCTTTTGATTAAATTACGGAGTCACCTAGTGCAG", "binding signal": "8480 fluorescence intensity (a.u.)"}
{"sequence": "ATTGCAACCATTCATCTCTTTTAGCCCTCTAAAAAAAATACGGAGTCACCTAGTGCAG", "binding signal": "8640 fluorescence intensity (a.u.)"}
{"sequence": "CGCTGGGACTTCTCTGCTATCTTTTCCTGTGTCTACATTTCGGAGTCACCTAGTGCAG", "binding signal": "8700 fluorescence intensity (a.u.)"}
{"sequence": "TTCACGGTTGAATATCTGTTTACTTATCTTTTTACTTATACGGAGTCACCTAGTGCAG", "binding signal": "8620 fluorescence intensity (a.u.)"}
{"sequence": "GTGGTGGAGGAGGAGGAGGAGGATGAGGAGGAAGCGGCTGCGGAGTCACCTAGTGCAG", "binding signal": "8570 fluorescence intensity (a.u.)"}
{"sequence": "CATCCTCGCCGTCATTTTGCGCCGCCTCTTGGACACCCGCCGGAGTCACCTAGTGCAG", "binding signal": "9250 fluorescence intensity (a.u.)"}
{"sequence": "GCTCTCTTTGACTTTATCAGAGTTCCCGTAGTATCTAAACCGGAGTCACCTAGTGCAG", "binding signal": "8830 fluorescence intensity (a.u.)"}
{"sequence": "GTACGCAACTTGTCCGCAGCCGCGACCCCGACCCGACCCGCGGAGTCACCTAGTGCAG", "binding signal": "8200 fluorescence intensity (a.u.)"}
{"sequence": "CTCCTCCTCCGGCCACGTCGACGTCGCACCAACCGCCGCCCGGAGTCACCTAGTGCAG", "binding signal": "8480 fluorescence intensity (a.u.)"}
{"sequence": "GATCTAGCCTTATCCTCCTTCGTCGCCTCCGGATTGGTTTCGGAGTCACCTAGTGCAG", "binding signal": "8550 fluorescence intensity (a.u.)"}
{"sequence": "CCCGTCTCTTTCACGACCCACTCCGCCTCGCCTCCACTCCCGGAGTCACCTAGTGCAG", "binding signal": "8390 fluorescence intensity (a.u.)"}
{"sequence": "GATTCCCGCCATCTCTATCCTCCTACTCGTCGCTGTCATCCGGAGTCACCTAGTGCAG", "binding signal": "10200 fluorescence intensity (a.u.)"}
{"sequence": "GCTTCTATATCCGTGATTGTTAACACTATTATATTGTTATCGGAGTCACCTAGTGCAG", "binding signal": "11700 fluorescence intensity (a.u.)"}
{"sequence": "TTTGCATTCTACTATGTCTGGCAGCATCTGCTGTAGTTGGCGGAGTCACCTAGTGCAG", "binding signal": "8990 fluorescence intensity (a.u.)"}
{"sequence": "TTGTGGGGCCCGCTTTTGTCCTGATTTTTCTCGTTCTTTCCGGAGTCACCTAGTGCAG", "binding signal": "11300 fluorescence intensity (a.u.)"}
{"sequence": "GCGTCTCCATTGGTTGAGGAGTGCCACACCCTGATTTTTCCGGAGTCACCTAGTGCAG", "binding signal": "8080 fluorescence intensity (a.u.)"}
{"sequence": "GTGGAGGGGAGGGGCTGCTGATGGGCTTTGGCCTAGAGCTCGGAGTCACCTAGTGCAG", "binding signal": "14000 fluorescence intensity (a.u.)"}
{"sequence": "CTCCAATCGGTTTTAGATTACTTTGTTAACTTTTGACCTACGGAGTCACCTAGTGCAG", "binding signal": "8350 fluorescence intensity (a.u.)"}
{"sequence": "CAATGGGGTTTTGACTGTCAGCTGCATTCGCACCCTTGCACGGAGTCACCTAGTGCAG", "binding signal": "9480 fluorescence intensity (a.u.)"}
{"sequence": "GTGCTTCCCAGCCTTCACTGTATGTCTGTATCGTTTTTCACGGAGTCACCTAGTGCAG", "binding signal": "15000 fluorescence intensity (a.u.)"}
{"sequence": "GTGATTGGATGGGTAGTGGAGACAGGTGGGAAAAATGAATCGGAGTCACCTAGTGCAG", "binding signal": "8510 fluorescence intensity (a.u.)"}
{"sequence": "CCTCGCCCACTCAACAGCCGCCGCCTCTCGGCTGCACAGCCGGAGTCACCTAGTGCAG", "binding signal": "11200 fluorescence intensity (a.u.)"}
{"sequence": "AAAAGCCATCACTGCTCTGCTAGCATCATTGTAGTACCAGCGGAGTCACCTAGTGCAG", "binding signal": "8290 fluorescence intensity (a.u.)"}
{"sequence": "AGGAGGGGTTGTTTGTCTCTAATCGCTCTCGTTCCCCATTCGGAGTCACCTAGTGCAG", "binding signal": "9620 fluorescence intensity (a.u.)"}
{"sequence": "AGGTTACGTACTCTCTGCTCCCTACATTAGCACTGGCGCACGGAGTCACCTAGTGCAG", "binding signal": "8290 fluorescence intensity (a.u.)"}
{"sequence": "GATATATTTGTTTTGTGTTAAAAATGCTACTATATTTTTTCGGAGTCACCTAGTGCAG", "binding signal": "9290 fluorescence intensity (a.u.)"}
{"sequence": "TTGTATGATGCCGTTGATTTTTTTTGTCTAACGTTTAACCCGGAGTCACCTAGTGCAG", "binding signal": "8360 fluorescence intensity (a.u.)"}
{"sequence": "CTACACTGGTCTGTTTGTCAACCATGGCGGGGAATGAGGACGGAGTCACCTAGTGCAG", "binding signal": "11900 fluorescence intensity (a.u.)"}
{"sequence": "ACATTCTACAATATACCATCGACTTTTGCTTAACTTCTACCGGAGTCACCTAGTGCAG", "binding signal": "10000 fluorescence intensity (a.u.)"}
{"sequence": "GCGGCGGCGGCGCTGGGGTCGGGGTTCGGCGGTCGCAATGCGGAGTCACCTAGTGCAG", "binding signal": "8920 fluorescence intensity (a.u.)"}
